# PubChem BioAssay AID1671190 (National Center for Advancing Translational Sciences (NCATS), 2021)
# By UniProt entry, the sequences of proteins in these tests, tags left out. Where a name states a change or a piece, a line headed by the entry shows the natural chain unless it says otherwise.
# UniProt P18054: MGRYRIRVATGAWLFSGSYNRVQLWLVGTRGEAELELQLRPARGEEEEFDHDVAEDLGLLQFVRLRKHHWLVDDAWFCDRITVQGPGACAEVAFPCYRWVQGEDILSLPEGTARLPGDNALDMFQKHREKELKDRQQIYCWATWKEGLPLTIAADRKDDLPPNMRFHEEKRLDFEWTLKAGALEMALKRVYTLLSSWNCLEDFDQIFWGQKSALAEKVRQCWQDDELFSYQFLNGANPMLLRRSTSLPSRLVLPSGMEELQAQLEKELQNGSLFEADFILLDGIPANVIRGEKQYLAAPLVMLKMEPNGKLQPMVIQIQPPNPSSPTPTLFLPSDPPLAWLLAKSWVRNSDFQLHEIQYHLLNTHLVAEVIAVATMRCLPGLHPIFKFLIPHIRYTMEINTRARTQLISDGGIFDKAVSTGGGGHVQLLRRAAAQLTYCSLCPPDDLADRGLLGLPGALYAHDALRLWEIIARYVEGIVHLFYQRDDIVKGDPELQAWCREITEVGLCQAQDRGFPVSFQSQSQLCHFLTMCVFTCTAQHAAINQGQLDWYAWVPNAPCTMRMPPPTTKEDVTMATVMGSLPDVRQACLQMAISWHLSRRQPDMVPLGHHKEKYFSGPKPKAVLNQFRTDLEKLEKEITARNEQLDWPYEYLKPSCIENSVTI
# Screen size: about 580,000 compounds; about 6,100 (1.1%) were called active. Inconclusive results, whose numbers are uncertain, are shown with a selection of clear calls. Calls follow the shape of the dose curve; as a rule, active = well fitted inhibition curve with a large enough effect; inconclusive = small, poorly fitted or top-dose-only effect, or another doubt; inactive = no such curve, though single readings can be large or run the other way. Potencies of inconclusive entries are doubtful fits and often do not repeat.
# Molecular target: Polyunsaturated fatty acid lipoxygenase ALOX12 (Homo sapiens) (UniProt P18054)
# Assay: Primary qHTS assay for inhibitors of human arachidonate 12S-lipoxygenase (ALOX12): Round 2
# Conditions: purified 12hLO, xylenol orange hydroperoxide absorbance; activity change, negative = inhibition: at 108 µM (top of the series) unless noted
# Outline: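 Purified human 12hLO at 150 nM in 25 mM Hepes, 0.01% Triton X-100, pH 7.0, preincubated 15 min at room temperature with compound. Reaction started with 40 uM arachidonic acid, 30 min at room temperature. Hydroperoxide measured by Fe-xylenol orange, 573/405 nm absorbance ratio.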
# % is scaled to controls: 0 for no effect and ±100 for the full control effect; potency is read from the fitted curve at half-maximal effect.
Structure (SMILES),Potency,"activity change, negative = inhibition"
CCOC(=O)c1c(OCC)[nH]c2c1cc(O)c1ccccc12,"inconclusive: 20 µM [inhibitor, partial curve]",–
CC(=O)Nc1ccc(C(=O)C(C)SC2CCCCC2)cc1 (stereo not drawn),"inconclusive: 7.94 µM [inhibitor, full curve, poor fit]",–
CCOC(=O)C(C)N1c2cccc3cccc(c23)S1(=O)=O (stereo not drawn),"inconclusive: 126 µM [inhibitor, single point]",–
Cc1nn(CC(=O)NC2CC2)c(C)c1S(=O)(=O)N(C)C,–,inactive: -3.68%
CN1CC(=O)N(C2CCC2)Cc2c(NCC3CC3)ncnc21,–,inactive: 11.4% [at 6.33 µM]
Cc1csc(=O)n1CC(=O)Nc1ccc(Cl)c(Cl)c1,"inconclusive: 79.4 µM [inhibitor, single point]",–
COc1cc(OC)cc(C(=O)NC(=S)Nc2cc3oc4ccccc4c3cc2OC)c1,"inconclusive: 7.08 µM [inhibitor, partial curve, poor fit]",–
CC1(C)C2([N+](=O)[O-])CN3CC1([N+](=O)[O-])CN(C2)C3C(O)C(O)C(O)CO (stereo not drawn),–,inactive: 7.64%
COCCNC(=O)c1ccc2c(c1)N(Cc1cccc(Cl)c1)C(=O)c1ccccc1S2=O (stereo not drawn),"inconclusive: 126 µM [inhibitor, partial curve, poor fit]",–
Cn1c(=O)[nH]c(=O)c2c1nc(NCCO)n2Cc1cccc2ccccc12,–,inactive: 24.2%
O=C(COC(=O)c1n[nH]c2ccccc12)Nc1ccc(OC(F)(F)F)cc1,"inconclusive: 50.1 µM [inhibitor, partial curve, poor fit]",–
COc1ccc([C@H]2C[C@H](O)[C@@H](n3cc(-c4ccc(F)cc4)nn3)CN2Cc2cccs2)cc1,"inconclusive: 44.7 µM [inhibitor, partial curve, poor fit]",–
COc1cccc(NC(=O)COC(=O)/C=C/c2ccco2)c1,"inconclusive: 79.4 µM [inhibitor, partial curve, poor fit]",–
O=[N+]([O-])c1ccc(Cl)c(CN2CCC(O)CC2)c1,–,inactive: -12.3%
Cc1ccc(C)c(SCC(=O)Nc2oc(C)c3c(C)n[nH]c(=O)c23)c1,"inconclusive: 39.8 µM [inhibitor, partial curve, poor fit]",–
O=C1Nc2ccccc2CC12CCCN2Cc1ccc(C(F)(F)F)cc1 (stereo not drawn),"inconclusive: 7.94 µM [inhibitor, full curve, poor fit]",–
O=C(O)CCC(CNS(=O)(=O)c1ccc(Cl)cc1)C(F)(F)F (stereo not drawn),–,inactive: -22.9%
CCOC(=O)c1cc(-c2ccccc2)n(CC(=O)NCc2ccccc2OC)c1C,"inconclusive: 141 µM [inhibitor, partial curve, poor fit]",–
CCC/C(=N\NC(=O)C(O)(c1ccc(C)cc1)c1ccc(C)cc1)c1ccccc1,"inconclusive: 100 µM [inhibitor, single point]",–
O=C1NC[C@H](Cc2ccccc2)N(C[C@H]2CCCN2C[C@H](Cc2ccccc2)N2C[C@H](Cc3ccc(O)cc3)N(CC3CCCCCC3)C(=O)C2=O)C1=O,"inconclusive: 56.2 µM [inhibitor, partial curve, poor fit]",–
O=Cc1c[nH]c2cccc(Cl)c12,–,inactive: -13.4%

Structure (SMILES),Potency,"activity change, negative = inhibition"
Fc1ccc(CNc2ncnc3c2c(-c2ccccc2)cn3-c2ccccc2)cc1,–,inactive: -16.8%
Cc1cc(C(=O)NC(C)c2ccc(C(F)(F)F)cc2)c(C)o1 (stereo not drawn),"inconclusive: 126 µM [inhibitor, partial curve, poor fit]",–
Cn1cnnc1CC1CCN(C(=O)c2cc3c([nH]c2=O)CCCC3)CC1,–,inactive: -13.4%
CCOC(=O)C1=CCN(S(=O)(=O)c2ccc(Br)cc2)C1c1cccc(C)c1 (stereo not drawn),–,inactive: 0.642%
Cn1c(=O)n(C)c2cc(S(=O)(=O)Nc3ccccc3C(=O)O)ccc21,inactive,–
CC(C)(C)NC(=O)C(c1c[nH]c2ccccc12)N(C(=O)Cn1nnc(-c2ccc(Cl)cc2)n1)c1ccccc1F (stereo not drawn),"inconclusive: 89.1 µM [inhibitor, partial curve, poor fit]",–
COc1ccc(Cl)cc1NC(=O)COC(=O)c1ccc(C)o1,"inconclusive: 28.2 µM [inhibitor, partial curve, poor fit]",–
COc1ccc(Cl)cc1C(=O)N1CC(=O)N(c2ccccc2C#N)CC1C (stereo not drawn),–,inactive: 4.25%
O=C(Nc1ccc(F)c(F)c1)C1CCCN(S(=O)(=O)c2cccc3nonc23)C1 (stereo not drawn),"inconclusive: 112 µM [inhibitor, partial curve, poor fit]",–
Cc1ccccc1C(=O)NCc1ccco1,–,inactive: 5.89%
CC(=O)c1c(O)c(C)c(O)c2c1OC1=CC(=O)C(C(C)=O)C(=O)[C@@]12C (stereo partly drawn),"inconclusive: 35.5 µM [inhibitor, partial curve, poor fit]",–
Cc1ccc(CN2CCN(c3nc4ccccc4o3)CC2CCO)cc1 (stereo not drawn),–,inactive: 15.7%
O=C(c1cc(=O)c2cc(F)ccc2o1)N(Cc1cccs1)c1ccccn1,"inconclusive: 3.55 µM [inhibitor, full curve, poor fit]",–
CCC1=NN(C(=O)CCc2ccc3c(c2)OCO3)C(O)(C(F)(F)F)C1 (stereo not drawn),"inconclusive: 70.8 µM [inhibitor, partial curve, poor fit]",–
CC1Oc2ccccc2C=C1/C=C/C(=O)c1ccc(O)cc1 (stereo not drawn),"inconclusive: 35.5 µM [inhibitor, partial curve, poor fit]",–
CSc1nc(O)c(C(c2ccc(F)cc2)c2c(O)nc(SC)[nH]c2=O)c(=O)[nH]1,"inconclusive: 22.4 µM [inhibitor, partial curve, poor fit]",–
CCN(CC)S(=O)(=O)c1ccc(S(=O)(=O)N2CCCC2c2cccn2C)cc1 (stereo not drawn),"inconclusive: 5.62 µM [inhibitor, partial curve, poor fit]",–
CNCc1cc(C)n(-c2cc(S(=O)(=O)N3CCOCC3)ccc2N2CCCC2)c1C,"inconclusive: 5.62 µM [inhibitor, full curve, poor fit]",–
COc1cc(OC)c2c(-c3ccccc3)cc(=O)oc2c1C(CCN1CCCC(C)C1)c1ccc(N(C)C)cc1 (stereo not drawn),–,inactive: -24.9%
FC(F)(F)c1ccccc1Cc1c(C2CCCCC2)nc2c3ccccc3ccn12,"inconclusive: 20 µM [inhibitor, partial curve, poor fit]",–
CC(=O)c1ccc(NC(=O)N[C@H]2C[C@@](O)(C(=O)N[C@H](Cc3ccccc3)C(N)=O)C[C@@H](O)[C@@H]2O)cc1,–,inactive: 3.86%

Structure (SMILES),Potency,"activity change, negative = inhibition"
CCOCC1(C)COc2ccc(C(=O)Nc3cccnc3)cc2N1 (stereo not drawn),"inconclusive: 39.8 µM [inhibitor, full curve, poor fit]",–
COc1ccc(NC(=O)C(C/C=C(/C)Cl)C(C)=O)cc1 (stereo not drawn),–,inactive: 0%
CC(Nc1cccc(CO)c1)c1nc2scc(-c3cccs3)c2c(=O)[nH]1 (stereo not drawn),–,inactive: -0.493%
COc1ccc2oc3cc(NCCN(C)C)ccc3c(=O)c2c1,"inconclusive: 100 µM [inhibitor, partial curve, poor fit]",–
Cc1ccc(C#CC[N+]2(CC#Cc3ccc(C)cc3)CCCCC2)cc1,"inconclusive: 44.7 µM [inhibitor, partial curve, poor fit]",–
O=C(Nc1ccc2c(c1)OCO2)Nc1ccc(Cl)cc1Cl,"inconclusive: 126 µM [inhibitor, single point]",–
COc1cc2c(cc1OC)C(c1ccccc1)N(C(=O)CCl)CC2 (stereo not drawn),–,inactive: -9.54%
Cc1ccc(-c2ccc(C=O)o2)cc1,"inconclusive: 112 µM [inhibitor, single point]",–
CCCc1nnc(NC(=O)c2nc(S(=O)(=O)Cc3ccc(C)cc3)ncc2Cl)s1,"inconclusive: 2 µM [inhibitor, full curve, poor fit]",–
O=C(c1ccc(C(F)(F)F)cc1)N1CCC2(CC1)CCN(Cc1cccs1)c1ccccc1O2,"inconclusive: 35.5 µM [inhibitor, full curve]",–
Cc1ccccc1CN1CCN(C2CCC2)CC1CCO (stereo not drawn),"inconclusive: 100 µM [inhibitor, single point]",–
Cn1cnc2c1c(=O)n(CC(=O)Nc1ccc3c(c1)OCO3)c(=O)n2C,–,inactive: 23.4%
CCOC(=O)c1ccccc1N/C=C/C(=O)c1cccs1,"inconclusive: 50.1 µM [inhibitor, partial curve, poor fit]",–
CSCCC(NS(=O)(=O)c1ccccc1)C(=O)Nc1nccs1 (stereo not drawn),"inconclusive: 50.1 µM [inhibitor, partial curve, poor fit]",–
Cc1cc(-c2nc(C)c(C(=O)NNS(=O)(=O)c3ccccc3)s2)no1,"inconclusive: 2 µM [inhibitor, partial curve, poor fit]",–
O=C(c1ccc(N2CCCCC2)c([N+](=O)[O-])c1)N1CCN(S(=O)(=O)c2ccccc2)CC1,"inconclusive: 56.2 µM [inhibitor, single point]",–
CN(Cc1ccccc1)C(=O)CC1CCCCN(Cc2ccccc2)C1=O (stereo not drawn),"inconclusive: 20 µM [inhibitor, full curve, poor fit]",–
OC(COCc1ccccc1F)Cn1nnc(-c2ccc(Br)cc2)n1 (stereo not drawn),"inconclusive: 79.4 µM [inhibitor, partial curve, poor fit]",–
CCCc1cc(N2CCCC(C(=O)NCc3ccc4c(c3)OCO4)C2)n2ncnc2n1 (stereo not drawn),"inconclusive: 0.631 µM [inhibitor, full curve, poor fit]",–
C=CCNC(=S)NNc1nc2c(c(=O)[nH]1)C1(CCCCC1)Cc1ccccc1-2,"inconclusive: 44.7 µM [inhibitor, partial curve, poor fit]",–
CCN1C(=O)[C@H]2[C@@H](c3ccc(-c4ccc(OC)cc4)cc3)N3CCC[C@@]3(C(=O)OC)[C@H]2C1=O,"inconclusive: 31.6 µM [inhibitor, partial curve, poor fit]",–

# Entries of single compounds, quoted from the list. Values in the order: Potency	activity change, negative = inhibition
# O=C(Nc1ccc2c(c1)OCO2)Nc1ccc(Cl)cc1Cl is listed as inconclusive: 126 µM [inhibitor, single point]	–
# C=CCNC(=S)NNc1nc2c(c(=O)[nH]1)C1(CCCCC1)Cc1ccccc1-2 is listed as inconclusive: 44.7 µM [inhibitor, partial curve, poor fit]	–
